Binding data for three molecules are collected here from publication doi:10.1101/2020.12.28.424526 (bioRxiv, 2020).

Results are given in words; binding and its absence hold for the method and conditions named. In cells and extracts the contact can be indirect. Here binding means that the protein was enriched with, or labelled near, the bait; the list need not be complete.

This assay concerns the target T1, 5'-3' exoribonuclease-2 (XRN-2) (C. elegans (endogenous in worm lysate)) (UniProt Q9U299).
T1 sequence: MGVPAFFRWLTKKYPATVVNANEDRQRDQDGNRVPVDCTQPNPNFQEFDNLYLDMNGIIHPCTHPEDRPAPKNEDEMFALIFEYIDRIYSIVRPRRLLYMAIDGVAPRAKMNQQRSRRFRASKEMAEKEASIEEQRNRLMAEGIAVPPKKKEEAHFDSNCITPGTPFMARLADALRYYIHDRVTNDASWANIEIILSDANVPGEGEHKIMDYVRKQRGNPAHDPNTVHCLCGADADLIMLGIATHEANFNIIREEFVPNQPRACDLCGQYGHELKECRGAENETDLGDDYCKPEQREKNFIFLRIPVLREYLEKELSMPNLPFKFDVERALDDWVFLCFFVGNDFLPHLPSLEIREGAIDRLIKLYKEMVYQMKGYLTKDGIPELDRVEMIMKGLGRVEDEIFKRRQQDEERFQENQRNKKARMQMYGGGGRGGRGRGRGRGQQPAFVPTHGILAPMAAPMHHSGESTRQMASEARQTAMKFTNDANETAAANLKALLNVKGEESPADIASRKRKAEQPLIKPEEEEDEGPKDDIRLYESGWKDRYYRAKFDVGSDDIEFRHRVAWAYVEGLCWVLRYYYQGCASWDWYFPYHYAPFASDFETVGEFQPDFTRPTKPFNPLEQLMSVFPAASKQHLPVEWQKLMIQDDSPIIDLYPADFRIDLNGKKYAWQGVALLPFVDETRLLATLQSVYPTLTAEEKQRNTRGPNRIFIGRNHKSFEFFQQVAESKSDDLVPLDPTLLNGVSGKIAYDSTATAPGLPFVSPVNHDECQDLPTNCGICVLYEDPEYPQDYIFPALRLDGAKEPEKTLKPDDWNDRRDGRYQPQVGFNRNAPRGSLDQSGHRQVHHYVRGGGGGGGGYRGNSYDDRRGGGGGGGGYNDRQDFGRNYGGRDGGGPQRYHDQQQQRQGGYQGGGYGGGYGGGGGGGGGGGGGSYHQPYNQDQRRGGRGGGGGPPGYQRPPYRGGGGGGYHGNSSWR
The experiment in a line: affinity purification with mass spectrometry.

Regarding “NOL-58 (C. elegans (endogenous in worm lysate))”, the binding result is given as “binds”. The value for “miRNasome-1.4 (B0024.11) (C. elegans (endogenous in worm lysate))” was “binds”.

B1: partner of XRN two-1 (PAXT-1) (natural protein, C. elegans (endogenous in worm lysate), UniProt Q21738 1-335, looked up)
chain: MGKLEDVEAEKKLWESDDAWELRKAFMLAHYDDYPKIQLQCLSQLFINVTLLGCEYSQTLMQKIRTMGAGIAANKDRTKTGSYVKASAAKKRQAVKTSDLEGASDESKKVKMEKSPSPVARESFDERLGKLKASLAMTPHHLTGEQMMKTATNSCLMKWHVNKINQKIEITIDRYVAFRHTFSQYCVDPRDCAINTLIESILSCDAAVHEESYEIRFDGVPVDECYAKSVTRRLAKIKSAVSNGAHTVKGLTTYLDAVNMSMIQNTQKLEGWSQQLDLVTADLLLSSRVLSSTECTKPAMATIANQMSEDVCQLILNDKINVINSMKSHSSLAFQ
For B1, the binding entry is “binds”.
